Measurements published in the supplement of paper PMC12595434, “Development of retinoid nuclear receptor pathway antagonists through targeting aldehyde dehydrogenase 1A3” (iScience, 2025).
This is one part of the list. This is a noisy data set.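 Tm was set to 64 °C where no melting was found, and many curves are irregular.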

By UniProt entry, the sequences of proteins in these tests, tags left out. Where a name states a change or a piece, a line headed by the entry shows the natural chain unless it says otherwise.
UniProt Q14258, whole entry: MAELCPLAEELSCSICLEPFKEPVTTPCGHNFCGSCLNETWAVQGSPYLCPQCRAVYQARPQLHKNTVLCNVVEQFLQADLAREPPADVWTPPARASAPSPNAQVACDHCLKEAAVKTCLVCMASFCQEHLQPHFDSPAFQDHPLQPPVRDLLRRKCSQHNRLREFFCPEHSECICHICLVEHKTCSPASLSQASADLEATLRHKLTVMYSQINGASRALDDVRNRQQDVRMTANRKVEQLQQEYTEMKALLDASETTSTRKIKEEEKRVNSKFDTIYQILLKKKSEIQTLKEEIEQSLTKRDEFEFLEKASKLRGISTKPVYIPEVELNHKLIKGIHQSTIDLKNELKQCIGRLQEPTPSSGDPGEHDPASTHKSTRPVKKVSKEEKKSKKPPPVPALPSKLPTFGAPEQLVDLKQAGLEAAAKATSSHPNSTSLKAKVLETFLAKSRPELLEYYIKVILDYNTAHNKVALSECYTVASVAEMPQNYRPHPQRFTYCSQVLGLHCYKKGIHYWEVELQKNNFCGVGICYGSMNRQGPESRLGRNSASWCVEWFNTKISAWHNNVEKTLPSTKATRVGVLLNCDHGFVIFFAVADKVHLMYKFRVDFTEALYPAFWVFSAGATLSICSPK
UniProt Q13107: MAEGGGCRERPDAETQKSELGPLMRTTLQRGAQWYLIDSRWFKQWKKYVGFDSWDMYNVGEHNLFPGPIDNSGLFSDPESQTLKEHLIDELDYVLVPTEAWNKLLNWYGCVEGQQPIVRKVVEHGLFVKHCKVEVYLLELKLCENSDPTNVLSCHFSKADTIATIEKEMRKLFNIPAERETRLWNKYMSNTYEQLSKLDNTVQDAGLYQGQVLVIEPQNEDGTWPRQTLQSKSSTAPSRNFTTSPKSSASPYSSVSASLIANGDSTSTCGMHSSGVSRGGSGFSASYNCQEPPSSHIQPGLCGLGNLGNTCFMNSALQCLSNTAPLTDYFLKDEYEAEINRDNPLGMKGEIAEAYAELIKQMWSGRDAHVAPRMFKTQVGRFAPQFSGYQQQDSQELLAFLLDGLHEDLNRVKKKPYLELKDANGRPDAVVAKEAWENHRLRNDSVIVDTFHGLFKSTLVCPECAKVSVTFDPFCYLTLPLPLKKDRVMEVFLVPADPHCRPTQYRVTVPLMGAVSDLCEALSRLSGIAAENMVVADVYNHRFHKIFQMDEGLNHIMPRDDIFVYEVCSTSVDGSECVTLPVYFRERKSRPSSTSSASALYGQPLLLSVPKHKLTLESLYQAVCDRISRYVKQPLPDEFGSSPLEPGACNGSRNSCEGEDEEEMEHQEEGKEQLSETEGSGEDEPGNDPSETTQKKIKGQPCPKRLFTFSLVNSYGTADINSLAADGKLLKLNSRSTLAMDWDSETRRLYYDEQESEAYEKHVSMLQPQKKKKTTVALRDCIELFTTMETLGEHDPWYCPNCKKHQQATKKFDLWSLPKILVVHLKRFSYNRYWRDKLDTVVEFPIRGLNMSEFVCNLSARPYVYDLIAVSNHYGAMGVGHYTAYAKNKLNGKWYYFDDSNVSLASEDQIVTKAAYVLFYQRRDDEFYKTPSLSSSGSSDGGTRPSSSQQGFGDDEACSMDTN
UniProt Q13352: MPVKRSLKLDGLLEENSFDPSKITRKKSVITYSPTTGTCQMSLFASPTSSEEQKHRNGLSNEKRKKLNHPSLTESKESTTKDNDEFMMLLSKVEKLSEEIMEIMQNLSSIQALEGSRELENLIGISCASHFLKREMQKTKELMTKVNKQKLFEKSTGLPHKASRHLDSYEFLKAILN
UniProt Q13951, whole entry: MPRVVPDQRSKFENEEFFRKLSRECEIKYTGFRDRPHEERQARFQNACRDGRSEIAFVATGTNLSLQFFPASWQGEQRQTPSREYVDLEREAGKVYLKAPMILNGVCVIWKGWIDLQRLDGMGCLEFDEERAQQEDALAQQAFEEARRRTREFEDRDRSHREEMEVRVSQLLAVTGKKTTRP
UniProt Q13164: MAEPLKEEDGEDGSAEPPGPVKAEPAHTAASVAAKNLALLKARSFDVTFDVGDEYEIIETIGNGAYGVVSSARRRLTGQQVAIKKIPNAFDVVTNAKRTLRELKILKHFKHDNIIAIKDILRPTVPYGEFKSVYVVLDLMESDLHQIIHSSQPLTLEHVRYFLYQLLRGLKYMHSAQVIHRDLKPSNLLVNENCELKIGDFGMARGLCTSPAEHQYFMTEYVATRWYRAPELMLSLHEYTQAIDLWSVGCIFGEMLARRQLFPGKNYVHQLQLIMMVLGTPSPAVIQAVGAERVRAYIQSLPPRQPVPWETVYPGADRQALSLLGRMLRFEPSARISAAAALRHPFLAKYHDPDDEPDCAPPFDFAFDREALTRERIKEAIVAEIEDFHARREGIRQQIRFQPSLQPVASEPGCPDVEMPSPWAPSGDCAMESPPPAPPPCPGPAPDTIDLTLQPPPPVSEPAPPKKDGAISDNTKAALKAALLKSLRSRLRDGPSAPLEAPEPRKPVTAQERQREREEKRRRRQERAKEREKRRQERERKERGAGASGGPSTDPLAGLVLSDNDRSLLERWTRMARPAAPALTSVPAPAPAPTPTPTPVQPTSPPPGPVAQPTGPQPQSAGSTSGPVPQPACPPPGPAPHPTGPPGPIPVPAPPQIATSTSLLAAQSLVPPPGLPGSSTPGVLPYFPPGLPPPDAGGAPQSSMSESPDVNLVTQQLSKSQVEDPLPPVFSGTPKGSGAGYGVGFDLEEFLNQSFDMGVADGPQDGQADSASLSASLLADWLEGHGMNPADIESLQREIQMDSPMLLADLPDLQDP
UniProt Q13868, whole entry: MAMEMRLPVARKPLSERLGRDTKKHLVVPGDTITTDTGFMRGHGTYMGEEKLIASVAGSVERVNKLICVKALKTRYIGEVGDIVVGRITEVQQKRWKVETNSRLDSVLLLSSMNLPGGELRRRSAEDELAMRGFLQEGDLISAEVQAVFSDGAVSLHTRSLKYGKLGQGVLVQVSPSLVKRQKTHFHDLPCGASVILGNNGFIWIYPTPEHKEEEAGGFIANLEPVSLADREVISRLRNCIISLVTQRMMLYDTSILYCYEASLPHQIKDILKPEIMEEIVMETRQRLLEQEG
UniProt Q13425: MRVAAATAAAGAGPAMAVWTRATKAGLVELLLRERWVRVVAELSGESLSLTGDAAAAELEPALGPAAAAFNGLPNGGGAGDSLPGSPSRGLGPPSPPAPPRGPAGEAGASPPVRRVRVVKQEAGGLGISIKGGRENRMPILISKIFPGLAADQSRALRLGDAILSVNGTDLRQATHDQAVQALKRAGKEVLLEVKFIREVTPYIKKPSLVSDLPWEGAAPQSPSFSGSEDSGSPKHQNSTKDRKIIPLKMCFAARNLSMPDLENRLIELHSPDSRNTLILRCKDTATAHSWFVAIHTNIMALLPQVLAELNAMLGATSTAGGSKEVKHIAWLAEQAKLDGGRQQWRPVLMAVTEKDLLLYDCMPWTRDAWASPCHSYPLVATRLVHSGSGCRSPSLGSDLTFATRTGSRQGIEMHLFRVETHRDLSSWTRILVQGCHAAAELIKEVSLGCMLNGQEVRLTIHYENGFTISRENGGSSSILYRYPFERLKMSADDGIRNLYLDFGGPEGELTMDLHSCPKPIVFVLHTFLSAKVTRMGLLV
UniProt Q13409, whole entry: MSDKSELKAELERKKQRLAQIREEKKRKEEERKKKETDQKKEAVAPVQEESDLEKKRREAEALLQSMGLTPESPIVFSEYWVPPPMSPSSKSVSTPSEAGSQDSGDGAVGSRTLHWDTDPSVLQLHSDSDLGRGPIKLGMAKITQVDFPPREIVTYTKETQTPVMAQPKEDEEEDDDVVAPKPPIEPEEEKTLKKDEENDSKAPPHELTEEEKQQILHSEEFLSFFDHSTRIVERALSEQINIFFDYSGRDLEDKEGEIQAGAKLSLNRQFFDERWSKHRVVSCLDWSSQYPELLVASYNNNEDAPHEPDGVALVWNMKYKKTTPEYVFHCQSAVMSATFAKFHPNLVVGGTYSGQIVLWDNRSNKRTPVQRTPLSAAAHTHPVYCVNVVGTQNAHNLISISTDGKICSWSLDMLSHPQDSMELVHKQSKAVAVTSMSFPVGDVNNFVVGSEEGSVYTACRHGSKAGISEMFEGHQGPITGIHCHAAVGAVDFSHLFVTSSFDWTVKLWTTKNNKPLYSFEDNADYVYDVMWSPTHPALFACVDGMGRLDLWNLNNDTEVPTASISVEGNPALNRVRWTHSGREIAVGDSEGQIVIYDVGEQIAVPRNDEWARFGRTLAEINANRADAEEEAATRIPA
UniProt Q14642: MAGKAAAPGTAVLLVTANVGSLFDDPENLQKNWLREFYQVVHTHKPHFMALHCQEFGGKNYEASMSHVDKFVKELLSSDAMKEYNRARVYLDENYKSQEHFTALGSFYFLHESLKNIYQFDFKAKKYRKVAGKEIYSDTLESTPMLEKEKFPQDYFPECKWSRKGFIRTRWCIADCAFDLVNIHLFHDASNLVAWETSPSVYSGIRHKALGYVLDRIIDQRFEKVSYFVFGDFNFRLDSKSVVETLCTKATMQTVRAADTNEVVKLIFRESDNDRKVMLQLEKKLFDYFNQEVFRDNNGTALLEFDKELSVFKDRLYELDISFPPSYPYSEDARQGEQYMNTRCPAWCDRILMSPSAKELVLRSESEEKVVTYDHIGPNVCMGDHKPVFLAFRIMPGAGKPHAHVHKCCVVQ
UniProt Q13573: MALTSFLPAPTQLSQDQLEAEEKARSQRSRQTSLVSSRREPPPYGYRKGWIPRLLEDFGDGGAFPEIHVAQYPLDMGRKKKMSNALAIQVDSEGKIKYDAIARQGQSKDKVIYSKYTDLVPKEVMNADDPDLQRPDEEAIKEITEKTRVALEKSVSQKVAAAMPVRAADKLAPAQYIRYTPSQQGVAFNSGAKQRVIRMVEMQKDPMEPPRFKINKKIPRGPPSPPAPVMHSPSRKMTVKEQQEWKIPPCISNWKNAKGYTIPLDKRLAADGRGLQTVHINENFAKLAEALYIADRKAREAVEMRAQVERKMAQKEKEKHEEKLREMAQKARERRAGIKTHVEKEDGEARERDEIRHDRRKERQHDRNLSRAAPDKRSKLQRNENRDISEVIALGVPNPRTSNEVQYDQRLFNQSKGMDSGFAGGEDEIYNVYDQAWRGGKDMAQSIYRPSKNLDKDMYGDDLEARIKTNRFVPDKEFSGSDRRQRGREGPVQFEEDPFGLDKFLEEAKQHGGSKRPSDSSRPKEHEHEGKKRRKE
UniProt Q13480: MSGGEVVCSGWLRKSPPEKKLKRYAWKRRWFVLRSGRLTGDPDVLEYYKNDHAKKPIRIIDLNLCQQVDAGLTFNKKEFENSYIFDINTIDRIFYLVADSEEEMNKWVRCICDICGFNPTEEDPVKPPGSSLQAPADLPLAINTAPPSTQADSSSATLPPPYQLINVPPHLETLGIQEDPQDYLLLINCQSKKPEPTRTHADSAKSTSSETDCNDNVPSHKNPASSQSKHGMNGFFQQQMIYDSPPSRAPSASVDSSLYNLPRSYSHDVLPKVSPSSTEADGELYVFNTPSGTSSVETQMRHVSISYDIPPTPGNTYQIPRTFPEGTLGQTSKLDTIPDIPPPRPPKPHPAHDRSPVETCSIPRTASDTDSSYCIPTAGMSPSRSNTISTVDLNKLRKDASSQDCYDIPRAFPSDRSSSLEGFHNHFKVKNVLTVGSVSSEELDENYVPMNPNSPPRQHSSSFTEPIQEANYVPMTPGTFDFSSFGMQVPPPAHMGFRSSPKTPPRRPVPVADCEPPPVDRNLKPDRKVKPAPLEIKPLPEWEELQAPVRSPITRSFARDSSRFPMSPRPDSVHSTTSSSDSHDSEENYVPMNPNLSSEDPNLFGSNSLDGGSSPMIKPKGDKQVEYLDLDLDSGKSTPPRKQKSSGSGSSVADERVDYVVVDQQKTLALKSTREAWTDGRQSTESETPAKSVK
UniProt Q13825: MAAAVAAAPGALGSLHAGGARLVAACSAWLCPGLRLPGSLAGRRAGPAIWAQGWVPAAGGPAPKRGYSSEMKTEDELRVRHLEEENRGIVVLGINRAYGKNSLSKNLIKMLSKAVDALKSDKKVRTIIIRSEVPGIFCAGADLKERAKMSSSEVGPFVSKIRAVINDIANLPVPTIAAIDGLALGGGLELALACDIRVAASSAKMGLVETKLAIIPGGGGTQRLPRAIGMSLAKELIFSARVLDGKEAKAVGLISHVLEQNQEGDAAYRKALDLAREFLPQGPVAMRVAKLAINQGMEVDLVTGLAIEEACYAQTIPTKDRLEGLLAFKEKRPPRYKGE
UniProt Q15013: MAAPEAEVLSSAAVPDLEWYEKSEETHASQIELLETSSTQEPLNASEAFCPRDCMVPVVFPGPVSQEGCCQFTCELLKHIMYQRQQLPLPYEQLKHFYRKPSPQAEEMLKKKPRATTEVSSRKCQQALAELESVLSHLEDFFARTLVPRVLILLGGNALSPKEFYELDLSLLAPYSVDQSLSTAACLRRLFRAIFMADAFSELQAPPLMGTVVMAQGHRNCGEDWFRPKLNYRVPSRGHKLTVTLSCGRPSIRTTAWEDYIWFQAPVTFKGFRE

compound: CCc1cnccc1C(=O)Nc1cc2c(cc1F)NC(=O)CC2; assay: melting temperature shift (DMSO Tm minus MBE1-treated Tm) in cellular thermal proteome profiling; higher = less thermal stabilization by MBE1 (negative = stabilized by MBE1); details: A375; MBE1 concentration: 100 nM

Target | melting temperature shift
TRIM25 (UniProt Q14258) | -0.574 °C
UniProt Q14160 | -0.967 °C
USP4 (UniProt Q13107) | -0.993 °C
ACACA (UniProt Q13085) | -0.621 °C
UniProt Q13352 | -1.18 °C
CBFB (UniProt Q13951) | 0.287 °C
UniProt Q14964 | 0.215 °C
UniProt Q13796 | -0.324 °C
PTPRS (UniProt Q13332) | -2.25 °C
GRB10 (UniProt Q13322) | -0.115 °C
MRPL28 (UniProt Q13084) | -1.93 °C
UniProt Q15048 | 1.07 °C
SART3 (UniProt Q15020) | 0.263 °C
PRPSAP1 (UniProt Q14558) | -0.241 °C
UniProt Q13164 | -0.00941 °C
VGLL4 (UniProt Q14135) | -0.14 °C
UniProt Q13325 | -1.05 °C
EXOSC2 (UniProt Q13868) | -0.916 °C
UniProt Q14168 | -1.3 °C
TARDBP (UniProt Q13148) | -0.0513 °C
MAP3K1 (UniProt Q13233) | -3.14 °C
SNTB2 (UniProt Q13425) | -0.0256 °C
DYNC1I2 (UniProt Q13409) | -0.879 °C
ITPK1 (UniProt Q13572) | 0.44 °C
BIRC2 (UniProt Q13490) | 0.464 °C
CTBP1 (UniProt Q13363) | -1.27 °C
INPP5A (UniProt Q14642) | 1.12 °C
MTMR1 (UniProt Q13613) | 0.321 °C

same assay, conditions: A375; MBE1 concentration: 1 uM

Target | melting temperature shift
UniProt Q13114 | -1.31 °C
TRIM25 (UniProt Q14258) | -0.527 °C
SNW1 (UniProt Q13573) | -2.49 °C
UniProt Q14160 | -0.511 °C
USP4 (UniProt Q13107) | 0.00641 °C
DAG1 (UniProt Q14118) | -3.33 °C
ACACA (UniProt Q13085) | -0.395 °C
UniProt Q149N8 | 2.38 °C
UniProt Q13352 | -1.01 °C
CBFB (UniProt Q13951) | -0.452 °C
UniProt Q14964 | -0.355 °C
UniProt Q13796 | -0.586 °C
PTPRS (UniProt Q13332) | 0.61 °C
BLMH (UniProt Q13867) | -1.38 °C
GAB1 (UniProt Q13480) | 1.09 °C
MRPL28 (UniProt Q13084) | -2.34 °C
SART3 (UniProt Q15020) | -0.0366 °C

Target | melting temperature shift
PRPSAP1 (UniProt Q14558) | 1.16 °C
AUH (UniProt Q13825) | 0.434 °C
TP53BP2 (UniProt Q13625) | 4.8 °C
UniProt Q13164 | 0.414 °C
VGLL4 (UniProt Q14135) | 2.26 °C
UniProt Q13325 | -0.268 °C
EXOSC2 (UniProt Q13868) | -1.44 °C
TARDBP (UniProt Q13148) | -0.429 °C
MAP3K1 (UniProt Q13233) | 0.415 °C
SNTB2 (UniProt Q13425) | -0.165 °C
DYNC1I2 (UniProt Q13409) | 0.425 °C
ITPK1 (UniProt Q13572) | 0.855 °C
BIRC2 (UniProt Q13490) | 0.293 °C
CTBP1 (UniProt Q13363) | 1.2 °C
UniProt Q15013 | 1.61 °C
INPP5A (UniProt Q14642) | 0.488 °C
MTMR1 (UniProt Q13613) | 0.0488 °C
